This passage reports log2 fold change results from the supplement of paper PMC12819154, “High-throughput peptide-centric local stability assay extends protein–ligand identification to membrane proteins, tissues and bacteria” (Nature Structural & Molecular Biology, 2025).

Protein sequences, listed by entry. Tags and fused reporters are not part of them. Lines headed by an entry give the natural chain unless they say otherwise; changes in a name come on top.
UniProt P27641: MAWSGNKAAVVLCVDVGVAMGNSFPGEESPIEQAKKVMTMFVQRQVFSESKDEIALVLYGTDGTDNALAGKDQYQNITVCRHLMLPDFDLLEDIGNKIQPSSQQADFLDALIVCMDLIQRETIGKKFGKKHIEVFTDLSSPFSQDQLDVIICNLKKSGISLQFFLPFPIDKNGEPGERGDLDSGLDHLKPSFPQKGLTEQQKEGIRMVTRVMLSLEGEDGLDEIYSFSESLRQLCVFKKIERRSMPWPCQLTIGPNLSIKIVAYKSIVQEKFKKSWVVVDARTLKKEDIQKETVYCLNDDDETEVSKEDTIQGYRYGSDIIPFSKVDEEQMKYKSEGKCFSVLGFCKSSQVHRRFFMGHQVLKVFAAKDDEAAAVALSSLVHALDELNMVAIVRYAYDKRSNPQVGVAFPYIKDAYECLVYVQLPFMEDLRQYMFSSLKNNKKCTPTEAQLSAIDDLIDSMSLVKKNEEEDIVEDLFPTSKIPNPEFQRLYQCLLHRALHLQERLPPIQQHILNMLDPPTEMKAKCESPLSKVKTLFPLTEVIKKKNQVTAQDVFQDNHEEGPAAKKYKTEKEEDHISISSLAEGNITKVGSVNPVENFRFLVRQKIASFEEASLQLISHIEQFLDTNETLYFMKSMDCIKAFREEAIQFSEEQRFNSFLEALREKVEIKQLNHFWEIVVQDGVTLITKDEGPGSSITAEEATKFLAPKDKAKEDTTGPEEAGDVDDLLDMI
UniProt P21958: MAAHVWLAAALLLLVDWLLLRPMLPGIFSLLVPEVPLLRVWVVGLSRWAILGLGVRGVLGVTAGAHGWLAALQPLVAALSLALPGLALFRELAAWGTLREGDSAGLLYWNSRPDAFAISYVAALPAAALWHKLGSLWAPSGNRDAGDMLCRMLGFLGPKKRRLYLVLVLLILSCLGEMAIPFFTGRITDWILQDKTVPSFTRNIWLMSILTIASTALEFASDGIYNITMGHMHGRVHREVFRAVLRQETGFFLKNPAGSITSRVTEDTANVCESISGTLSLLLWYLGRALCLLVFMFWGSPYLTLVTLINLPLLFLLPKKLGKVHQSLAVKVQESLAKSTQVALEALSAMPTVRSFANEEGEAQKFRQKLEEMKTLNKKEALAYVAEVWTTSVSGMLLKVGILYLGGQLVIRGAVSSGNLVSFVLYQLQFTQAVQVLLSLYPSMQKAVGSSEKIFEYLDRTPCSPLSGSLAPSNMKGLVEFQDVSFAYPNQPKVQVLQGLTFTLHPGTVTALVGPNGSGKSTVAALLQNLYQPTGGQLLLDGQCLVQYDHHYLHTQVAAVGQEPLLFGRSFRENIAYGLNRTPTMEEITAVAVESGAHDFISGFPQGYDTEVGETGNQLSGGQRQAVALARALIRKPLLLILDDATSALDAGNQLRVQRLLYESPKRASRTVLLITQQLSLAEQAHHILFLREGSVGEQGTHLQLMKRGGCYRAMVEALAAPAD
UniProt P32020: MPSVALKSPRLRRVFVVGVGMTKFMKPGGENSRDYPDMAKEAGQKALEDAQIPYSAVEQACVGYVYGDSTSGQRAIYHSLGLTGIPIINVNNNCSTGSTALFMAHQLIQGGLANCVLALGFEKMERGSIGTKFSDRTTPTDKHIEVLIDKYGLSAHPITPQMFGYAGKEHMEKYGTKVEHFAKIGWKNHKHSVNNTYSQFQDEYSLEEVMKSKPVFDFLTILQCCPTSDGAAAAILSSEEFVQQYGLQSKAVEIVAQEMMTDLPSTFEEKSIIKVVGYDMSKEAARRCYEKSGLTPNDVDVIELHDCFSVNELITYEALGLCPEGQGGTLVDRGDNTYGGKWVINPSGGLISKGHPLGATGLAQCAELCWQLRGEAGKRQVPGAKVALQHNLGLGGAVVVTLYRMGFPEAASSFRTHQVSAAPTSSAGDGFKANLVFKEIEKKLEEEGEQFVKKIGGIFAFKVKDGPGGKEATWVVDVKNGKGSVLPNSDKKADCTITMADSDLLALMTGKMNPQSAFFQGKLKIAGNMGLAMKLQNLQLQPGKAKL
UniProt P21126: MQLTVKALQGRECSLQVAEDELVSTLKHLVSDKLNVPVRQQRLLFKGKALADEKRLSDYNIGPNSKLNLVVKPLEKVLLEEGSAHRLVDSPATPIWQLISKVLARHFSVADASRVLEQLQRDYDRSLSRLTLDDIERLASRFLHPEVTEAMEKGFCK
UniProt P35278: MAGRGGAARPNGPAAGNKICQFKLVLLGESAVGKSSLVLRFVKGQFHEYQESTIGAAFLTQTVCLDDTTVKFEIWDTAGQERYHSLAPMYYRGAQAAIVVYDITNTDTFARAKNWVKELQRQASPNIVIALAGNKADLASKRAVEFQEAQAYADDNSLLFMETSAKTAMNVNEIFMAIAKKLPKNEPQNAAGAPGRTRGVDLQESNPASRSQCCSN
UniProt P24472: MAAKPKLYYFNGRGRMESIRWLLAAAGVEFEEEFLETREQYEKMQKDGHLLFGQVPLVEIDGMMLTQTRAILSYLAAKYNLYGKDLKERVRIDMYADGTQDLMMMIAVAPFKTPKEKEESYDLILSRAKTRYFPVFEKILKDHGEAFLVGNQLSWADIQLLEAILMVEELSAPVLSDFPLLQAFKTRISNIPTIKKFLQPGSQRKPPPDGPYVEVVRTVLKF
UniProt P28474: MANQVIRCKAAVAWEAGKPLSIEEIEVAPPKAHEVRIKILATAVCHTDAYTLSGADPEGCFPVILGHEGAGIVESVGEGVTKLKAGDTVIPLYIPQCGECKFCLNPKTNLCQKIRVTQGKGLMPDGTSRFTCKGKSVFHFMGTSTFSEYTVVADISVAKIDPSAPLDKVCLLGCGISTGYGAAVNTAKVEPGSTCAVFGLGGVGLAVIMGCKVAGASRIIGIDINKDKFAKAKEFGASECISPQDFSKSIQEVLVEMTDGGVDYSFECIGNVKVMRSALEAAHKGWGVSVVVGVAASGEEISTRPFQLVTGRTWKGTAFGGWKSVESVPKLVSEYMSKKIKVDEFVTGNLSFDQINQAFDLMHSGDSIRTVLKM
UniProt P20065: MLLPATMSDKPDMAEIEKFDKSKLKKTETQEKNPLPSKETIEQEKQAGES
UniProt P23708: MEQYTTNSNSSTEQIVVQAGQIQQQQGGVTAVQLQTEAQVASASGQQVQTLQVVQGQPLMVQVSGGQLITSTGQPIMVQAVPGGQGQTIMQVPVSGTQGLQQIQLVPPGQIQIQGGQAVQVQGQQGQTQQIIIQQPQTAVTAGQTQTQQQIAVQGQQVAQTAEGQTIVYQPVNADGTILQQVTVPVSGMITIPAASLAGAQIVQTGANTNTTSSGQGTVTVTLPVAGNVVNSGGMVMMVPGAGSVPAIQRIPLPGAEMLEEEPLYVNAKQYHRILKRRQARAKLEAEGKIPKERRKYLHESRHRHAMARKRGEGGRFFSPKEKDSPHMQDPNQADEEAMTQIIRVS
UniProt P28575: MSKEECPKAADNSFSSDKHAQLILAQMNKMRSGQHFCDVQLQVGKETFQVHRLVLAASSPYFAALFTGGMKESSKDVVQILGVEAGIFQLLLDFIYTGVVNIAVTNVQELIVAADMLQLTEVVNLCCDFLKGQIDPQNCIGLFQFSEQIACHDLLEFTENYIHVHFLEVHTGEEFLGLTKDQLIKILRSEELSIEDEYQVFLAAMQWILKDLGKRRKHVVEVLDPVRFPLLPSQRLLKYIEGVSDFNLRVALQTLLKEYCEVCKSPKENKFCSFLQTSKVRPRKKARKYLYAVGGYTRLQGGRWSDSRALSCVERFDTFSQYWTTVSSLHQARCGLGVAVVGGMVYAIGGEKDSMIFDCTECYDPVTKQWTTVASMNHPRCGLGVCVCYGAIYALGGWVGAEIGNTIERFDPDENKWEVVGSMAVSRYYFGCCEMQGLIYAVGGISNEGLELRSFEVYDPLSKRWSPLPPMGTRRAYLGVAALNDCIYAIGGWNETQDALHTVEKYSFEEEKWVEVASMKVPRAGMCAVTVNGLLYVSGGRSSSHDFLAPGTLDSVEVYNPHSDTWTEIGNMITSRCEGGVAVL
UniProt P25206: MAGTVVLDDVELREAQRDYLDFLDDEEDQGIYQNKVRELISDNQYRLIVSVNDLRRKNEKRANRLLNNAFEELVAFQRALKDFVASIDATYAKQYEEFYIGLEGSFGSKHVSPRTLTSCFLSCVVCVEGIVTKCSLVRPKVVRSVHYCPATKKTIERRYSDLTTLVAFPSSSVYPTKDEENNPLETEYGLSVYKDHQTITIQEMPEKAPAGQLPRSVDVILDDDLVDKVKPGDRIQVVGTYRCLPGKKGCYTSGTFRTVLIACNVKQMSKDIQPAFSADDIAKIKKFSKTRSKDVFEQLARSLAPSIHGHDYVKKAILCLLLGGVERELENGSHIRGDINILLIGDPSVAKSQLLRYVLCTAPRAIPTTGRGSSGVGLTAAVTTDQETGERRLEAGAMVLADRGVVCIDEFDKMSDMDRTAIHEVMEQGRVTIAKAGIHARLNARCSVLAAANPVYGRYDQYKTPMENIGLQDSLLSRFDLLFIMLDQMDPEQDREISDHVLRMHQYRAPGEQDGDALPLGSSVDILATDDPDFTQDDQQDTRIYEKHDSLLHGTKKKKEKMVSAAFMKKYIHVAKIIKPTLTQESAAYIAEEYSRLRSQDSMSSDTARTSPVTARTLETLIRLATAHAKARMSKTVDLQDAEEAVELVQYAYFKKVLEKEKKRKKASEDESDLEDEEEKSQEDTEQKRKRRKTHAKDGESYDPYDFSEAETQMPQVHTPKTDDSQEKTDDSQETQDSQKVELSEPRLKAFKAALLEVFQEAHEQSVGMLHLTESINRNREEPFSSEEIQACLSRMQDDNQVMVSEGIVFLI
UniProt P21271, whole entry: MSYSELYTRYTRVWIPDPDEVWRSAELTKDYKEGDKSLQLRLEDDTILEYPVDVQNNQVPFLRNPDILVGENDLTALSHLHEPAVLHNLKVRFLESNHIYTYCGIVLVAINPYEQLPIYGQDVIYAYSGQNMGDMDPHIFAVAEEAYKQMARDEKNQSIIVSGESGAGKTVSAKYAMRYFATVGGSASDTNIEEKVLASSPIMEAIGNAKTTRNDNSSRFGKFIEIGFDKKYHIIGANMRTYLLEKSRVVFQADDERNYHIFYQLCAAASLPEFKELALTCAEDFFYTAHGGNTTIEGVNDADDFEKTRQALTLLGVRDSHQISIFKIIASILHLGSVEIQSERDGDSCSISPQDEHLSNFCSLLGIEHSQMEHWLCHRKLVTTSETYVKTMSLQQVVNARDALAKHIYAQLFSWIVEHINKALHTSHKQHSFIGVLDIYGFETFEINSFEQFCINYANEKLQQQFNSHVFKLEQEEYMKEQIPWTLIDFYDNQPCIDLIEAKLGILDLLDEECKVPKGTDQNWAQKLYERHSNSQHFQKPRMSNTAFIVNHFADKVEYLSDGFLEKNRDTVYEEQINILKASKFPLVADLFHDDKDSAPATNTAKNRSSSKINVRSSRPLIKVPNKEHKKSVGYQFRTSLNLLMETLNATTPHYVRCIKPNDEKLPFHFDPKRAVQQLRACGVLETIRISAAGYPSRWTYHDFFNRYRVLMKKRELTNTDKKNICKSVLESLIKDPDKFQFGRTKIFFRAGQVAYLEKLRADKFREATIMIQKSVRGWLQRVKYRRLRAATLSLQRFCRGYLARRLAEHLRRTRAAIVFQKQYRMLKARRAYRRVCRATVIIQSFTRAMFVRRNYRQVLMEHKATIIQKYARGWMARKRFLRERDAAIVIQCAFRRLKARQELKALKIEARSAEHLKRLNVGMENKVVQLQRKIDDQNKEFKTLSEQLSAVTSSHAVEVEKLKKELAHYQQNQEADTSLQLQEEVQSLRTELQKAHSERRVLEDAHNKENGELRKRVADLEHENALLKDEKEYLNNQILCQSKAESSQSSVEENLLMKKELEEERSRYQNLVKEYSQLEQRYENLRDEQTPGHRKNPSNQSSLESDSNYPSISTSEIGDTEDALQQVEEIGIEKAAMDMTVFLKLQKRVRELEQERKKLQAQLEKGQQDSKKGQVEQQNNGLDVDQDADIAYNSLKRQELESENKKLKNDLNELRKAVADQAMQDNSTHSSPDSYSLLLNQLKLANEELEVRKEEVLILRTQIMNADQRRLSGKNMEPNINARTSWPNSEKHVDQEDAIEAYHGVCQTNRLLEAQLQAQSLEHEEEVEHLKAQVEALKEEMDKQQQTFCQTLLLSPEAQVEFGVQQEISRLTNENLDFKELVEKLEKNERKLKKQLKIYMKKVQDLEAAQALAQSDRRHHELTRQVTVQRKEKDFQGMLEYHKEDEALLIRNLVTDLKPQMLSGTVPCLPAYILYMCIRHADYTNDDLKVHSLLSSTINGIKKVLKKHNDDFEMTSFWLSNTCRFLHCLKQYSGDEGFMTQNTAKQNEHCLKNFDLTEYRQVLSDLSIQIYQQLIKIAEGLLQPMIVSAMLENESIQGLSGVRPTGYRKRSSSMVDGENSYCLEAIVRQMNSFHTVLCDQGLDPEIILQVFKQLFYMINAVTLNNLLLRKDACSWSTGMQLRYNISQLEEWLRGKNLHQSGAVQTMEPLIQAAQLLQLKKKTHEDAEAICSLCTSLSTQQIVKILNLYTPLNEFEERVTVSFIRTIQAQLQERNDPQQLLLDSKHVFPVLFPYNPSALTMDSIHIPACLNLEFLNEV

The list shows a part of the results. Most values lie at the level of the controls, where differences are scatter.

Compound in this assay: CN[C@@H]1C[C@H]2O[C@@](C)([C@@H]1OC)n1c3ccccc3c3c4c(c5c6ccccc6n2c5c31)C(=O)NC4 [staurosporine]
The assay can be described thus: log2 fold change of tryptic peptide abundance, ligand vs vehicle (limited proteolysis) (log2 ratio); higher = more trypsin-susceptible (destabilized). To be noted: ligand concentration: 20 uM; sample: mouse liver crude lysate; replicate design: treated separately.
For the target “UniProt P27641 (peptide sequence: ALHLQER, peptide start residue: 498)”, the log2 fold change is 0.305.
In the case of “UniProt P29788 (peptide sequence: EPQFISR, peptide start residue: 330)”, the log2 fold change was -0.163.
The result for “UniProt P27889 (peptide sequence: EALVEECNRAECLQR, peptide start residue: 262)” reads -0.0926; that for “UniProt P19426 (peptide sequence: MLVIPPGLSEEEEALQKK, peptide start residue: 1)”, 0.22; that for “UniProt P16045 (peptide sequence: FNAHGDANTIVCNTK, peptide start residue: 50)”, 0.248.
The same measure for “UniProt P16546 (peptide sequence: NNHHEENISSK, peptide start residue: 1940)”: -0.756; for “UniProt P31254 (peptide sequence: MYPIDFEK, peptide start residue: 844)”: 0.294.
On to “UniProt P23475 (peptide sequence: IMLFTNEDDPHGRDSAK, peptide start residue: 164)”, for which the log2 fold change amounted to 0.547.
Consider “UniProt P21958 (peptide sequence: EGSVGEQGTHLQLMK, peptide start residue: 693)”, for which the log2 fold change was 0.196.
With “UniProt P27870 (peptide sequence: YTDTLGSIQQHFMKPLQR, peptide start residue: 209)”, the log2 fold change turned out to be 0.326.
The result for “UniProt P32020 (peptide sequence: KLEEEGEQFVK, peptide start residue: 443)” reads 0.145.
“UniProt P21126 (peptide sequence: LSDYNIGPNSK, peptide start residue: 56)”: the log2 fold change was -0.41.
For the target “UniProt P22682 (peptide sequence: ALVIAHNNIEMAK, peptide start residue: 884)”, the log2 fold change was 0.203.
The result for “UniProt P31230 (peptide sequence: MVVLLCNLKPAK, peptide start residue: 204)” reads 0.293; that for “UniProt P35278 (peptide sequence: KLPKNEPQNAAGAPGR, peptide start residue: 181)”, -0.243.
The result for “UniProt P24472 (peptide sequence: LYYFNGR, peptide start residue: 7)” reads 0.0905; that for “UniProt P24270 (peptide sequence: RLCENIAGHLK, peptide start residue: 458)”, -0.198; that for “UniProt P28843 (peptide sequence: VLEDNSALDR, peptide start residue: 487)”, -1.12.
The same measure for “UniProt P25799 (peptide sequence: QLTEDTR, peptide start residue: 806)”: -0.272; for “UniProt P28474 (peptide sequence: IIGIDINKDKFAK, peptide start residue: 219)”: 0.0949.
In the case of “UniProt P26040 (peptide sequence: ITEAEKNER, peptide start residue: 518)”, the log2 fold change is -0.508.
The same measure for “UniProt P27661 (peptide sequence: KASQASQEY, peptide start residue: 135)”: -0.0944.
Regarding “UniProt P15946 (peptide sequence: LFQREPSAQHRMVSK, peptide start residue: 80)”, the log2 fold change came out at 0.136.
In the case of “UniProt P27699 (peptide sequence: KILNELSSDVPGIPK, peptide start residue: 136)”, the log2 fold change is -0.364.
For the target “UniProt P20065 (peptide sequence: KTETQEK, peptide start residue: 26)”, the log2 fold change was -0.519.
The result for “UniProt P27048 (peptide sequence: HMNLILCDCDEFR, peptide start residue: 37)” reads -0.377; that for “UniProt P23708 (peptide sequence: EKDSPHMQDPNQADEEAMTQIIR, peptide start residue: 322)”, 0.202.
The same measure for “UniProt P28575 (peptide sequence: VALQTLLK, peptide start residue: 250)”: 0.16; for “UniProt P16382 (peptide sequence: AGWCPMEVSR, peptide start residue: 340)”: -0.256.
For the target “UniProt P22599 (peptide sequence: MQHLEQTLNK, peptide start residue: 278)”, the log2 fold change worked out at 0.141.
The same measure for “UniProt P34022 (peptide sequence: FLNAENAQK, peptide start residue: 142)”: -0.229; for “UniProt P25206 (peptide sequence: SVHYCPATKK, peptide start residue: 144)”: 0.735; for “UniProt P28665 (peptide sequence: HVAYAVYSLSK, peptide start residue: 436)”: 0.775.
The same measure for “UniProt P17751 (peptide sequence: TATPQQAQEVHEKLR, peptide start residue: 176)”: -0.262; for “UniProt P21271 (peptide sequence: QALTLLGVR, peptide start residue: 310)”: -0.76; for “UniProt P19182 (peptide sequence: HLYNSAAFK, peptide start residue: 421)”: -0.365.
The same measure for “UniProt P23249 (peptide sequence: IANLAFVTK, peptide start residue: 63)”: 0.367; for “UniProt P16627 (peptide sequence: ITITNDKGR, peptide start residue: 501)”: -0.392.
On to “UniProt P17742 (peptide sequence: EGMNIVEAMER, peptide start residue: 134)”, for which the log2 fold change was 0.284.
